Taken from: PubChem BioAssay AID504764 (Drosophila RNAi Screening Center, 2011)
In all, the deposit lists about 22,000 reagents; below is a random part of those with a known target gene and a result. Over the whole deposit, 403 (1.9%) were called active. 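Unnormalised raw counts per well; ratio z-scores behind the hit calls and whether each hit raises or lowers signal are not deposited.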 Unmarked entries are inactive. Not given: the amount of reagent.

Screen: 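Knock-downs that raise or lower a Notch target reporter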 (primary screen)
Cell system: Drosophila Kc167 cells
Reagents: long dsRNA against Drosophila genes
Time to read-out: about 5 days (4 days dsRNA, then 24 h after transfection)
Treatment: transfection of constitutively active membrane-tethered Notch lacking the extracellular domain, read 24 h later
Detection: 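Firefly luciferase from an E(spl)m3 reporter with active Notch, plus control-promoter and uninduced reporter wells for normalisation; unnormalised counts, duplicate wells a and b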
Scale: induced reporter light, run 1, well a and induced reporter light, run 1, well b: higher = more light from the Notch target reporter with active Notch; control promoter light, run 1, well a and control promoter light, run 1, well b: higher = more light from the viral control promoter (cell number, transfection, viability); uninduced reporter light, run 1, well a: higher = more light from the Notch target reporter without active Notch
Hit rule: 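Wells with low control signal or poorly matching duplicates excluded; duplicates averaged; per source plate, z beyond ±2 for induced/control log2 ratio or beyond ±1.8 for induced/uninduced marks a hit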
Meaning of the calls: active = modifier hit (raised or lowered Notch signal); inactive = not a hit

predicted target	dsRNA	induced reporter light, run 1, well a	induced reporter light, run 1, well b	control promoter light, run 1, well a	control promoter light, run 1, well b	uninduced reporter light, run 1, well a
CG1958	DRSC18196	1.54e5	1.63e5	2.55e5	2.76e5	11475
Best3	DRSC09880	2.24e5	1.67e5	2.00e5	2.23e5	7750
eIF3c	DRSC06905	9275	7095	8195	8395	905
CG17300	DRSC10260	2.01e5	1.73e5	1.91e5	1.51e5	10885
Lk	DRSC10022	1.54e5	2.03e5	2.21e5	2.11e5	7400
Rpe	DRSC06407	2.14e5	2.32e5	2.31e5	1.90e5	16095
CG15543	DRSC15081	1.36e5	1.01e5	1.98e5	1.54e5	12330
Cyp6u1	DRSC05015	1.63e5	1.59e5	1.28e5	1.51e5	12470
ap	DRSC04917	1.86e5	1.59e5	1.34e5	1.72e5	11845
CG33110	DRSC14694	10495	8420	11375	11220	3340
CG33110	DRSC16137	2.69e5	2.66e5	2.95e5	2.48e5	20470
CG5078	DRSC11762	1.85e5	1.11e5	1.15e5	1.03e5	9810
Cpr78Cc	DRSC11846	1.00e5	90820	87000	1.06e5	4955
Miox	DRSC10747	57600	83820	88435	89035	7340
CG14561	DRSC11722	1.57e5	1.53e5	1.34e5	1.39e5	9900
Moe	DRSC18684	2.75e5	2.45e5	2.54e5	2.37e5	15350
CG15336	DRSC18019	1.39e5	1.49e5	2.02e5	1.98e5	10545
ND-B14.5A	DRSC18500	1.05e5	90750	1.55e5	1.49e5	8180
l(2)k10201	DRSC06439	1.95e5	2.04e5	2.36e5	2.38e5	18285
l(2)k10201	DRSC07640	1.97e5	2.00e5	2.43e5	2.44e5	19730

A run of entries taken from the entries so far, as a working copy:
predicted target	dsRNA	induced reporter light, run 1, well a	induced reporter light, run 1, well b	control promoter light, run 1, well a	control promoter light, run 1, well b	uninduced reporter light, run 1, well a
eIF3c	DRSC06905	9275	7095	8195	8395	905
CG17300	DRSC10260	2.01e5	1.73e5	1.91e5	1.51e5	10885
Lk	DRSC10022	1.54e5	2.03e5	2.21e5	2.11e5	7400
Rpe	DRSC06407	2.14e5	2.32e5	2.31e5	1.90e5	16095
CG15543	DRSC15081	1.36e5	1.01e5	1.98e5	1.54e5	12330
Cyp6u1	DRSC05015	1.63e5	1.59e5	1.28e5	1.51e5	12470
ap	DRSC04917	1.86e5	1.59e5	1.34e5	1.72e5	11845

Additional results follow.
predicted target	dsRNA	induced reporter light, run 1, well a	induced reporter light, run 1, well b	control promoter light, run 1, well a	control promoter light, run 1, well b	uninduced reporter light, run 1, well a
Cpr92F	DRSC15819	1.72e5	1.60e5	1.91e5	1.87e5	12670
PVRAP	DRSC09966	81970	1.07e5	70205	59825	7695
PVRAP	DRSC10577	1.39e5 (active)	1.35e5	3.48e5	2.66e5	7950
CG9143	DRSC07338	97255	1.02e5	1.94e5	2.66e5	8870
Ir85a	DRSC14382	93690	1.11e5	1.01e5	66745	7355
CG13315	DRSC09986	2.10e5	2.21e5	2.85e5	2.70e5	11635
CG14839	DRSC14963	2.22e5	2.19e5	2.48e5	2.12e5	17495
CG30378	DRSC05071	56725	69235	86420	75685	3940
CG5447	DRSC15801	1.58e5	1.47e5	1.70e5	2.01e5	15210
ringer	DRSC10455	1.66e5 (active)	2.41e5	3.10e5	2.78e5	6050
CG34038	DRSC04039	1.84e5	2.04e5	2.19e5	2.44e5	10420
lectin-37Da	DRSC03278	50095	35555	46640	37460	2015
Grip75	DRSC03337	1.40e5	1.53e5	72405	83095	17300
mor	DRSC15378	85715 (active)	84295	85015	91210	11040
Coprox	DRSC01996	1.33e5 (active)	1.35e5	2.04e5	2.24e5	12565
Scp2	DRSC13166	1.91e5	1.73e5	2.00e5	1.69e5	10915
Scp2	DRSC16854	2.77e5	2.56e5	2.78e5	3.00e5	20790
CG31705	DRSC01991	2.39e5	1.64e5	1.68e5	1.86e5	15275
CG5225	DRSC15742	1.73e5	1.97e5	2.08e5	2.41e5	16810
CG2124	DRSC18208	1.26e5	1.01e5	2.16e5	1.93e5	8075
CG40486	DRSC20619	1.74e5	1.41e5	1.12e5	85370	9395
Agpat4	DRSC10446	1.31e5	1.38e5	1.68e5	1.45e5	6645
l(2)34Fd	DRSC01911	2.84e5	2.46e5	2.03e5	2.18e5	16665
MED25	DRSC14483	5475	5080	6315	6945	2450
CG1896	DRSC15397	1.80e5	1.89e5	2.45e5	2.23e5	13150
JMJD4	DRSC03025	2.19e5	2.87e5	2.31e5	2.00e5	16625
CG33096	DRSC14440	1.67e5	1.69e5	2.51e5	2.47e5	14505
mol	DRSC01431	54880	50485	65515	63445	5080
mol	DRSC01912	2.37e5	2.22e5	1.84e5	1.92e5	17355
mol	DRSC02479	92675	1.23e5	1.07e5	1.18e5	7945
